The values below come from US20150307487.

For at least one entry, the source does not settle the construct or the ends of the probe.

Data set [1] concerns DGCR8Δ (DGCR8 deletion construct). Kind of data set: binding assay. To be noted: TR-FRET complex (anti-His6-Tb / streptavidin-XL665), 160 nM RNA, 154.5 nM protein, 5 uM bulk tRNA, 2 mM MgCl2, 2 mM CaCl2, room temperature; purified recombinant protein; protein details: His-tag, expressed in E. coli BL21; label: 5'-biotin. On the technique in general: In TR-FRET formats the signal depends on donor and acceptor labels being close together.

Data set [2] has the same test system. Kind of data set: EMSA. To be noted: binds 12, 24 and 60 repeats similarly; 50 mM Tris-HCl pH 8.0, 75 mM NaCl, 37.5 mM KCl, 1 mM MgCl2, 0.1 mg/mL yeast tRNA, room temperature; purified recombinant protein; protein details: His-tag, expressed in E. coli BL21; label: [alpha-32P]-ATP by in vitro transcription. For orientation: Mobility shift assays separate free from complexed probe on a gel.

On to “CGGCGGCGGCGGCGGCGGCGGCGGCGGCGGCGGCGG [5'-biotin-r(CGG)12]”, for which, in data set [1], the binding result was “binds”.

“CGGCGGCGGCGGCGGCGGCGGCGGCGGCGGCGGCGG [r(CGG)12, 32P-labelled]”: the binding result in data set [2] is listed as “binds”.
